Results on 42 sequences are retold here after paper PMC7819943, “Rice protein-binding microarrays: a tool to detect cis-acting elements near promoter regions in rice”.

This is one part of the list.

The test concerns the target T1, OsSMF1 (Oryza sativa, UniProt Q6ZLB0 1-436).
T1 sequence: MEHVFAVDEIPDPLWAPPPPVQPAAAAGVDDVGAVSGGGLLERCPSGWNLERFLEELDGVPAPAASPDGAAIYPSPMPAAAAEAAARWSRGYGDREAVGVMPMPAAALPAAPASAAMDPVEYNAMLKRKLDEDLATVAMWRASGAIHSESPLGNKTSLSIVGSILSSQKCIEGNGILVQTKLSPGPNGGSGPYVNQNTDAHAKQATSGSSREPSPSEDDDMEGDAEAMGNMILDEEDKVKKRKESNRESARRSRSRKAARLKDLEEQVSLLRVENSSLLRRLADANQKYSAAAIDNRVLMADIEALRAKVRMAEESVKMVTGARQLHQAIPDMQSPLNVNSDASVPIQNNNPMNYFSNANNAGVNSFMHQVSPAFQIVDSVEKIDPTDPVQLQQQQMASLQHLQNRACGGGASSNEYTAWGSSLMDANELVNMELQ
In words: protein-binding microarray (RPBM); PBS, 2% BSA, 51.3 ng/ul salmon testes DNA, 50 uM zinc acetate, 200 nM TF, 25 C, 1 h; high values mean tight binding. The conditions noted are these: protein: recombinant; tags: N-terminal polyhistidine and DsRed monomer fusion (pET32a); chain copies: 2; label: CyDye5-dUTP incorporated in the synthesized complementary strand; 3' TTTTT single-stranded linker to array surface; dsDNA, one strand shown. The procedure, abridged:
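The binding signal is fluorescence intensity per feature, in arbitrary units, read on an Axon 4000B scanner. Polyhistidine- and DsRed-tagged transcription factors (N-terminal fusions) from E. coli BL21-CodonPlus were purified on Ni–NTA and applied at 200 nM for 1 h at 25 °C to a double-stranded, BSA-blocked custom Agilent array in buffer with 50 µM zinc acetate.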
Consider “CTTCCATTTCCCAAATCCCAACCACCAAGCAAGAAAACGTCGGAGTCACCTAGTGCAG”, for which the binding signal was 9040 fluorescence intensity (a.u.).
Take “GTTACATACTGTGATAGTTTGTTTAATGCTAAATCTAGTACGGAGTCACCTAGTGCAG”: the binding signal is 43300 fluorescence intensity (a.u.).
The figure for “ACTCGGTCCAACCAAACCGGCCGCTAGTACCAATCGCTACCGGAGTCACCTAGTGCAG” is 9370 fluorescence intensity (a.u.); for “GATGGCGTATTTCAATCTTACGTTTCCCACATCTCCTCTCCGGAGTCACCTAGTGCAG” it is 3810 fluorescence intensity (a.u.); for “GTTGTTGACCGTGCGTCGCTGGTTCAACGTTGATGGAGTTCGGAGTCACCTAGTGCAG” it is 3450 fluorescence intensity (a.u.).
Next, “TGTCTGTCATGTGGGGTACATAGATTGATGGTTGCTGGCTCGGAGTCACCTAGTGCAG”: 3250 fluorescence intensity (a.u.); “GGCTACCAACACGCGTCGCTGGAGCGACACCACCACGCTGCGGAGTCACCTAGTGCAG”: 3750 fluorescence intensity (a.u.); “GAGCCCATCTTACCAGCCCAGCAACACTGGCCACCTGGCGCGGAGTCACCTAGTGCAG”: 3510 fluorescence intensity (a.u.).
Take “TCTGTACTACTTTAAAAGGCTCTGGTGGTGGTGACGGTAACGGAGTCACCTAGTGCAG”: the binding signal is 3800 fluorescence intensity (a.u.).
Next, “CAACCAGGGCCCCATCGCCTTCTCGCTGACATGAACGTCTCGGAGTCACCTAGTGCAG”: 3430 fluorescence intensity (a.u.).
The figure for “GAGAATGATGTATGCACGCAGATGACATGGTATGATGAACCGGAGTCACCTAGTGCAG” is 4370 fluorescence intensity (a.u.).
The figure for “TTCAGATCTTTTCCCTGATTGATTTGTGGCGTCACAAGTTCGGAGTCACCTAGTGCAG” is 7680 fluorescence intensity (a.u.).
With “CTCTCTTAAATCTTTCTGCAAATGCACCGTTTCCAGTCACCGGAGTCACCTAGTGCAG”, the binding signal is 4010 fluorescence intensity (a.u.).
Next, “CCTCAAGATCGCCGCCGCGACCGCCGCCGGCGCGTTGGCGCGGAGTCACCTAGTGCAG”: 3660 fluorescence intensity (a.u.).
Consider “AAGCTGCTCTCCGCCACGCGGCCGTGCTCGTCGACTCGCGCGGAGTCACCTAGTGCAG”, for which the binding signal was 4030 fluorescence intensity (a.u.).
On to “GCCACCGTGGTCGTCGACACGCGGAAAGACCAGAGAGGTGCGGAGTCACCTAGTGCAG”, for which the binding signal was 3540 fluorescence intensity (a.u.).
The figure for “TGTTTCCGTGGATTGATGACGTGGTGGGAGGCGCGGGGATCGGAGTCACCTAGTGCAG” is 12700 fluorescence intensity (a.u.).
Next, “AAGTTGGATCAAACAACTCAAAACCCCAGCCCATAGGTTACGGAGTCACCTAGTGCAG”: 24100 fluorescence intensity (a.u.); “ATGAAACTTTTGACGTGTTCTATTTCTTCAAAAGGTATTCCGGAGTCACCTAGTGCAG”: 5350 fluorescence intensity (a.u.).
As for “CCTCCCTCCGGCCCCTTGCCTCCACCCACGTCGTCGATCTCGGAGTCACCTAGTGCAG”, the binding signal was 4080 fluorescence intensity (a.u.).
The figure for “CACTCCGGCGTGACGGAGCCCTTCCCCGATGTGATGCCTACGGAGTCACCTAGTGCAG” is 32600 fluorescence intensity (a.u.).
As to “GTGGTACACTAGCAAGTACACGTTGGGCCAAATCTCTCAACGGAGTCACCTAGTGCAG”, the binding signal was 4290 fluorescence intensity (a.u.).
The figure for “GTCGCCAACCGTTTTCTCCTCCTCGCTCTCTCCATGTGATCGGAGTCACCTAGTGCAG” is 3460 fluorescence intensity (a.u.); for “GGTGAGATTCTGGGCTGGACACATCAAATTGACGAGGGCCCGGAGTCACCTAGTGCAG” it is 3220 fluorescence intensity (a.u.); for “TCACCTCCACCACCGTTGACGATGACACGCGGTGCGTCGCCGGAGTCACCTAGTGCAG” it is 4250 fluorescence intensity (a.u.).
The figure for “GAAAAGTTTTAGCGTGTCATATCGGATATATGGACACACACGGAGTCACCTAGTGCAG” is 3170 fluorescence intensity (a.u.).
Next, “ACCTCTCGCCGGCAAATTCCTTGGGGAAGGAAAGGCACTGCGGAGTCACCTAGTGCAG”: 3250 fluorescence intensity (a.u.); “GCAAGGGGCGCCGGGCGGCGGCCACGTGCAGGGAGACGGACGGAGTCACCTAGTGCAG”: 4310 fluorescence intensity (a.u.).
With “ACTATTCTAAACTATAAGGTGACGTCCCATCGATATTTGCCGGAGTCACCTAGTGCAG”, the binding signal was 4530 fluorescence intensity (a.u.).
With “AATTAGTCATGTTATGATAGCCGAGAGATGCCGAGGTGGACGGAGTCACCTAGTGCAG”, the binding signal is 3770 fluorescence intensity (a.u.).
Next, “CAGGGGCATTTCCGTAAACTCCCACGTGGCACAGATACGGCGGAGTCACCTAGTGCAG”: 13200 fluorescence intensity (a.u.); “CTGCCACCACCGTCGCCGCGGCTTACACGTCTTCTTCGCCCGGAGTCACCTAGTGCAG”: 6600 fluorescence intensity (a.u.); “TCCTGCCACGACTGGACGCTCGCCGCCGCCGCCGACCGCCCGGAGTCACCTAGTGCAG”: 3400 fluorescence intensity (a.u.).
Next, “CGTCTAAATCACGACGTGCAAAAGCTGACGTCACATCTAACGGAGTCACCTAGTGCAG”: 14300 fluorescence intensity (a.u.); “ACGAACCACGGAGATCTCCACGAACCCTAACGCACCCCGCCGGAGTCACCTAGTGCAG”: 3430 fluorescence intensity (a.u.).
The figure for “GTCTCCATCCTTCCCAAACCGCGCCGCCTCTCCCCGTCCCCGGAGTCACCTAGTGCAG” is 3380 fluorescence intensity (a.u.); for “CAGCCACGGCGGCGGTGCGTGGCTGGACGAGGCGAGCGTGCGGAGTCACCTAGTGCAG” it is 3610 fluorescence intensity (a.u.); for “AGAGCCGAGGCCCGAATTCCTCCGGTCCTCCTCGTGACCCCGGAGTCACCTAGTGCAG” it is 15400 fluorescence intensity (a.u.).
As for “TTTGTGCAATAATGGGCGCAATAAATTAAAGAAGTTACAACGGAGTCACCTAGTGCAG”, the binding signal is 3160 fluorescence intensity (a.u.).
For “TTCATCCTCGGCCACTCCTACGTCAAGGCCAAGAGCGGCTCGGAGTCACCTAGTGCAG”, the binding signal was 3600 fluorescence intensity (a.u.).
The figure for “CCCATCATGCATGTATGAGGTGGCGTACGTCCCGTTGCAACGGAGTCACCTAGTGCAG” is 4810 fluorescence intensity (a.u.); for “TATCCAGGCGCACGACACTTGACAACTCTGTACTACGTAGCGGAGTCACCTAGTGCAG” it is 38900 fluorescence intensity (a.u.).
